Laboratory results from paper PMC5955124.
Results are given in words; binding and its absence hold for the method and conditions named. In cells and extracts the contact can be indirect. Some binding calls cover weakened binding; strength is not graded here. Sequences can lack the tags named with a protein. Values belong to the molecule of their own block, whether it stands above or below them.

Protein sequences, listed by entry. Tags and fused reporters are not part of them. Residues count along the entry.
UniProt P08195, residues 102-630: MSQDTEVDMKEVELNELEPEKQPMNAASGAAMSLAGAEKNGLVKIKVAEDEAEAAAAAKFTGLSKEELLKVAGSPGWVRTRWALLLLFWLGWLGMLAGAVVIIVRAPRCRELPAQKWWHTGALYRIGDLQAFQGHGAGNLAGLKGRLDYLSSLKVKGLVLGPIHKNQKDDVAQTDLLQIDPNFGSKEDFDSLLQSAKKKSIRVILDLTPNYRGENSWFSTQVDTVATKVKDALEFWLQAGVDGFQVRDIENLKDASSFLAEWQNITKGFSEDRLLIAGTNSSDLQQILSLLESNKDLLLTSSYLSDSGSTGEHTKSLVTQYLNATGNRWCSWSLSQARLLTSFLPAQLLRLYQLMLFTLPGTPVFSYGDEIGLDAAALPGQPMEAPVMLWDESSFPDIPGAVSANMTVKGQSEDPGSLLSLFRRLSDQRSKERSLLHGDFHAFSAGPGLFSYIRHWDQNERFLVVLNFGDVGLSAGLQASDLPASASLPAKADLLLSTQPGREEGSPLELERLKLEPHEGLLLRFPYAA

Columns and labels:
[1] = target: T1, histidine six-tagged PTPRJ (human) (UniProt Q12913); assay: pull-down; called co-immunoprecipitation by the paper: PTPRJ-His6 captured on MagneHis poly(His)-avid magnetic beads from enriched membrane extracts of A549 cells 72 h after infection; blot with CD98hc antibody; control cells with untagged Ad PTPRJ
T1 sequence: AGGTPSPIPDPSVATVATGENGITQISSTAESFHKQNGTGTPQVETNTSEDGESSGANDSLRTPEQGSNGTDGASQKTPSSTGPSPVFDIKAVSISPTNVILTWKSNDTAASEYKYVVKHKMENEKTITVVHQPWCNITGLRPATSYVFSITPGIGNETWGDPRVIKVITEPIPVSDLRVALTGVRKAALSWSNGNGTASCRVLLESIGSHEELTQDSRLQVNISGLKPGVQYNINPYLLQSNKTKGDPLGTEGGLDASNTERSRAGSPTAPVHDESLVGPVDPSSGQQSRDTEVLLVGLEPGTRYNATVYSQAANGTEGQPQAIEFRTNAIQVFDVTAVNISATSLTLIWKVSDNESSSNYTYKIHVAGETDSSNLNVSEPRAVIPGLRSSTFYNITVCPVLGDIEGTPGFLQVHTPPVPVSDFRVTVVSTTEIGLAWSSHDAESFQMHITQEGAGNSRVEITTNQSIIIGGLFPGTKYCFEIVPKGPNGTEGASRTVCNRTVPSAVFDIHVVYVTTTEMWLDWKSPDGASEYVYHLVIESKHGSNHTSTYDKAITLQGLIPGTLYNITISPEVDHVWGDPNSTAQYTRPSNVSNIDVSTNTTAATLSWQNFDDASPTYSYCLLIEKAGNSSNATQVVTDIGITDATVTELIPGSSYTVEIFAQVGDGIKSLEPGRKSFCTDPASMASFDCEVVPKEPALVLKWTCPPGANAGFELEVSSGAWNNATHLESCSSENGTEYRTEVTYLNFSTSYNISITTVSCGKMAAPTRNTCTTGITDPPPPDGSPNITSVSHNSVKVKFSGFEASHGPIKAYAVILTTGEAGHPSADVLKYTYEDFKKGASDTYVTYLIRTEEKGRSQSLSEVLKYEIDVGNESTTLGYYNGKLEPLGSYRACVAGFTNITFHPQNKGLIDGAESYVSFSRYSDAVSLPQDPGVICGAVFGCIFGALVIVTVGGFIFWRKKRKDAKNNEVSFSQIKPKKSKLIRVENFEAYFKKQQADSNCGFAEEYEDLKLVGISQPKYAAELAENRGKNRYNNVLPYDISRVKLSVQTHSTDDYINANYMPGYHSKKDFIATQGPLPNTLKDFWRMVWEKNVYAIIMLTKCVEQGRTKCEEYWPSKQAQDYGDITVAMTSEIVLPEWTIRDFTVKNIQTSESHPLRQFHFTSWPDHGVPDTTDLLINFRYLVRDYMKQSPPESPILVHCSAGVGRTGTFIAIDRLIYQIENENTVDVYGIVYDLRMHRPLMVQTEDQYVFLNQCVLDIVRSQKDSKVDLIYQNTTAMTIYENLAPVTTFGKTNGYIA

[2] = target: CD98hc (human (endogenous in A549)) (UniProt P08195); assay: co-IP; total lysates (0.5% Igepal CA-630, 150 mM NaCl, 50 mM Tris-HCl pH 7.5) of A549 cells 24 h after infection with Ad PTPRJ at MOI30; immunoprecipitated with CD98hc antibody overnight at 4 C and protein A/G Plus-Agarose; blot with PTPRJ antibody; IgG as control

binding [1]: binds
Molecule: CD98hc (from UniProt P08195 1-529)

binding [2]: binds
B1: ectopic PTPRJ protein (wild-type PTPRJ cDNA, Ad PTPRJ) (receptor, UniProt Q12913 36-1337)
chain: T1 sequence
